# Measured values reported in ChEMBL document CHEMBL1132135, “Potent, orally absorbed glucagon receptor antagonists” (Bioorg Med Chem Lett, 1999).
# Sequences of proteins named here, by UniProt entry; tags and fusion partners are left off.
# UniProt P47871, whole entry: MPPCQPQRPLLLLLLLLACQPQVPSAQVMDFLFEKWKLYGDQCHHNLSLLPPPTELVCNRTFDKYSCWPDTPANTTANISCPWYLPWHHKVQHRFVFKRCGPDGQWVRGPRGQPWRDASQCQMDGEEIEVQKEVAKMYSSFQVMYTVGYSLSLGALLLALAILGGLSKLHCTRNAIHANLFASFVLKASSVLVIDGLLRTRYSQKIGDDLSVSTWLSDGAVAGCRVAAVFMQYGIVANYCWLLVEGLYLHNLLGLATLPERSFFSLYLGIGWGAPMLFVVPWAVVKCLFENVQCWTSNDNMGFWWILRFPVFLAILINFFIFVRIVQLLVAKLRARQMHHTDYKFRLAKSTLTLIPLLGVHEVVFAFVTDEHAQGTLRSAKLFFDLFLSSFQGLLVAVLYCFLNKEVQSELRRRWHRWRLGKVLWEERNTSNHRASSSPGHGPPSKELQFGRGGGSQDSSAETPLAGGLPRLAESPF
# Target: Glucagon receptor (Homo sapiens, UniProt P47871)
# Assay: biochemical
# Format: cell-based, CHO
compound,measurement,value
CSc1ccc(-c2nc(-c3ccc(F)cc3)c(-c3ccncc3)[nH]2)cc1,IC50,490 nM
